Values from PubChem BioAssay AID1159584 (Peter MacCallum Cancer Centre, 2016).
Test: 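Genes whose loss is lethal only together with E-cadherin loss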 (primary screen). System: human MCF10A breast epithelial cells, parental and CDH1-null. Reagents: siRNA against human genes. Read-out: 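Cell viability by CellTiter-Glo ATP luminescence, each line scaled to the mean of mock wells across plates, then CDH1-null over parental ratio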. Direction: CDH1-null / parental viability ratio: higher = CDH1-null cells survive relatively better than parental.
Here is an unselected part of about 18,000 reagents tested. Further read-outs or replicates are left out here. Not given: the amount of reagent, the time to read-out.

The opening 3 entries, to show the layout:
| target | CDH1-null / parental viability ratio |
| --- | --- |
| RILPL1 (GeneID 353116) | 0.68 |
| NAT16 (GeneID 375607) | 1.16 |
| PALS1 (GeneID 64398) | 0.98 |

The listing, repeating the preview:
| target | CDH1-null / parental viability ratio |
| --- | --- |
| RILPL1 (GeneID 353116) | 0.68 |
| NAT16 (GeneID 375607) | 1.16 |
| PALS1 (GeneID 64398) | 0.98 |
| NLRP14 (GeneID 338323) | 1.01 |
| EIF2B2 (GeneID 8892) | 0.66 |
| GABARAP (GeneID 11337) | 0.99 |
| SPG7 (GeneID 6687) | 0.99 |
| HAND2 (GeneID 9464) | 0.84 |
| NID1 (GeneID 4811) | 1.17 |
| ITGA10 (GeneID 8515) | 0.93 |
| WWP2 (GeneID 11060) | 1.23 |
| MYH14 (GeneID 79784) | 0.94 |
| OSBPL11 (GeneID 114885) | 1 |
| BEX3 (GeneID 27018) | 1.27 |
| SEMA6C (GeneID 10500) | 1.43 |
| REN (GeneID 5972) | 1.29 |
| GCAT (GeneID 23464) | 0.9 |
| INHBE (GeneID 83729) | 1.32 |
| ABHD17B (GeneID 51104) | 0.89 |
| SLC44A1 (GeneID 23446) | 1.03 |
| KRTAP1-1 (GeneID 81851) | 0.93 |
| LRRC43 (GeneID 254050) | 1.12 |
| TOMM34 (GeneID 10953) | 0.87 |
| WNT10B (GeneID 7480) | 0.79 |
| ZBTB11 (GeneID 27107) | 0.59 |
| CNTROB (GeneID 116840) | 1.15 |
| GSC (GeneID 145258) | 0.74 |
| PPBP (GeneID 5473) | 0.85 |
